According to PubChem BioAssay AID1471 (National Center for Advancing Translational Sciences (NCATS), 2008):
Hit rate of the full screen: of about 230,000 compounds, about 310 (0.13%) were called active. Inconclusive means that the source gave no clear call. Such entries were picked first, then a sample of the others. Calls follow the shape of the dose curve; as a rule, active = well fitted activation curve with a large enough effect; inconclusive = small, poorly fitted or top-dose-only effect; inactive = no such curve, though single readings can be large or run the other way. Potencies beside an inconclusive call are fits to weak or partial responses and may not hold up.
Potency is read from the fitted curve at half-maximal effect.

Experiment: qHTS Multiplex Assay to Identify Dual Action Probes in a Cell Model of Huntington: Cytoprotection (ATP); also: nearly all actives have a fitted effect of over 45% in size;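 as to cytoprotection (ATP increase): toxic huntingtin expression switched on by the ecdysone agonist tebufenozide; % of control where 0% means no effect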
Conditions: PC12 HTT-Q103 induced, ATP luminescence, 40 h; cytoprotection (ATP increase): at 56.4 µM (top of the series) unless noted
Method in brief: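 Readout: ATPlite luminescence (ATP level). Model: stable PC12, inducible Htt exon1 Q103-GFP. Inducer: tebufenozide, 100 nM final. Compounds: dose series. No G418 in medium.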
For `COC(=O)c1ccc(C(=O)OC)c(NC(=S)N2CCC(N3CCCCC3)CC2)c1`, the Potency was inconclusive: 25100 nM [activator, single point]. For `O=C(CCN1CCCCC1)Nc1ccc2c(c1)C(=O)c1ccc(NC(=O)CCN3CCCCC3)cc1C2=O`, the Potency was inconclusive: 141 nM [activator, single point]. In the case of `CCOc1ccccc1OCC(=O)NNC(=O)Cn1cnc2c1c(=O)n(C)c(=O)n2C`, the Potency is reported as inconclusive: 1260 nM [activator, single point]. In the case of `COc1ccccc1N1CCN(/N=C\c2sccc2C)CC1`, the Potency is reported as inconclusive: 15.8 nM [activator, full curve]. In the case of `Cc1ccc(C)c(S(=O)(=O)Nc2ccc(C(=O)NCCc3ccccn3)cc2)c1`, the Potency is reported as inconclusive: 3980 nM [activator, single point]. In the case of `O=C(Nc1cccc(S(=O)(=O)N2CCCCC2)c1)c1ccc(OCC2CCCO2)cc1` (centres undefined), the Potency is reported as inconclusive: 794 nM [activator, single point]. For `CCCCC(=O)NC(=S)Nc1ccccc1C(=O)Nc1ccccc1`, the Potency was inconclusive: 1260 nM [activator, partial curve]. For `CCCn1c(C)nc2c(N3CCOCC3)nc(C)nc21`, the Potency was “inactive”. For `Cc1ccc(S(=O)(=O)NCC(=O)OCc2ccccc2)cc1`, the Potency was inconclusive: 5010 nM [activator, single point]. With `Cc1nnc(SCC(=O)NNC(=O)C(C)C)[nH]c1=O` the Potency was inconclusive: 89.1 nM [activator, partial curve, poor fit]. In the case of `O=S(=O)(c1ccccc1)N1CCC[C@@]2(CCN(c3cccc(-c4ccccc4)c3)C2)C1`, the Potency is reported as inconclusive: 501 nM [activator, full curve, poor fit]. With `CSc1ccc(/C=C(/NC(=O)c2ccccc2)C(=O)N2CCN(C)CC2)cc1` the Potency was “inactive”. In the case of `CN1C[C@H](C(=O)N[C@]2(C)O[C@@]3(O)[C@H]4CCCN4C(=O)[C@H](Cc4ccccc4)N3C2=O)C[C@H]2c3cccc4[nH]cc(c34)C[C@@H]21`, the Potency is reported as inconclusive: 112 nM [activator, partial curve]. For `N#C/C(=C/c1ccc(N2CCCCC2)o1)c1cccc(F)c1`, the Potency was inconclusive: 31600 nM [activator, single point]. With `COc1ccccc1NC(=O)c1c([N+](=O)[O-])c(C(C)(C)C)nn1C` the Potency was inconclusive: 447 nM [activator, partial curve]. With `C=CCOc1c(Br)cc(CNc2ccc3[nH]c(=O)[nH]c3c2)cc1OCC` the Potency was inconclusive: 3980 nM [activator, partial curve, poor fit]. In the case of `COc1cc2c(cc1OC)C(c1c[nH]c3ccccc13)NCC2` (centres undefined), the Potency is reported as inconclusive: 631 nM [activator, full curve, poor fit]. In the case of `C#C[C@]1(O)CC[C@@H]2[C@H]3CCc4cc(OC)ccc4[C@@H]3CC[C@@]21C`, the Potency is reported as inconclusive: 12600 nM [activator, single point]. With `CCCCNCC` the Potency was “inactive”. With `O=C(NCc1ccco1)C1CC(=O)N(c2ccc(Cl)cc2)C1` (centres undefined) the Potency was “inactive”. In the case of `CSc1ncccc1C(=O)Nc1ccc(S(=O)(=O)NC2=NCCCCC2)cc1`, the Potency is reported as “inactive”. With `COc1ccc(C2=NN3C(=O)c4c(ccc(OC)c4OC)C3C2)cc1` (centres undefined) the Potency was inconclusive: 794 nM [activator, single point]. For `O=Cc1cn(CCC(=O)O)nc1-c1cccc2ccccc12`, the Potency was inconclusive: 5620 nM [activator, single point]. In the case of `Cc1nc2c(C)cccc2cc1C(=O)N/N=C/c1ccc(N(C)C)cc1`, the Potency is reported as “inactive”. With `COC(=O)C1=C(C(=O)OC)[C@@H]2N(Cc3ccccc3)c3ccccc3[C@@]23C[C@@H](C(=O)OC)N(S(=O)(=O)c2ccc4c(c2)OCCN4C)C3=N1` the cytoprotection (ATP increase) was inactive: -17.1% [at 10 µM]. For `c1ccc(N/N=C2\CCCc3ccccc32)nc1`, the Potency was inconclusive: 4470 nM [activator, partial curve]. For `COc1cccc(C(=O)Nc2ccc3nc(N4CCN(c5ncccn5)CC4)cc(C)c3c2)c1OC`, the Potency was inconclusive: 2240 nM [activator, partial curve]. With `CC(=O)c1c(C)[nH]c(C(=O)CSc2nnc(-c3cccs3)n2Cc2ccccc2)c1C` the Potency was inconclusive: 100 nM [activator, full curve, poor fit]. With `CC(=O)/C(N)=N/Nc1cccc(Cl)c1` the cytoprotection (ATP increase) was inactive: 11.1% [at 10 µM]. In the case of `CN1CCN(S(=O)(=O)c2ccc(Br)c3nsnc23)CC1`, the Potency is reported as inconclusive: 6310 nM [activator, full curve, poor fit]. With `CN1CCN(C=Nc2nc3ccccc3nc2N2CCCC2)CC1` the Potency was inconclusive: 5620 nM [activator, single point]. In the case of `Cc1cc(C)cc(N(CC(=O)NCc2ccco2)C(=O)CCC(=O)Nc2nccs2)c1`, the Potency is reported as inconclusive: 5620 nM [activator, single point]. For `CN(C)S(=O)(=O)c1cc(NC(=O)CN2CCc3ccccc32)ccc1Cl`, the Potency was inconclusive: 5620 nM [activator, single point]. With `O=C1C2=CC[C@H]3C(=O)N(C[C@@H]4CCCO4)C(=O)[C@@H]3[C@@H]2[C@H](O)[C@@H]2O[C@H]12` the Potency was active: 1410 nM. With `CCOC(=O)c1sc(N(Cc2ccccc2)C(=O)CSc2nnc(C3CC3)n2N)nc1C` the Potency was “inactive”. In the case of `CCCCC1=CC2=CC(=O)C(C)(OC(=O)CC)C(=O)C2=CN1c1cccc(C#N)c1` (centres undefined), the cytoprotection (ATP increase) is reported as inactive: -17.2% [at 10 µM]. For `CCOC(=O)OCC1OC(c2ccc(C(C)=O)cc2)C=CC1Oc1ccc(-c2ccccc2)cc1` (centres undefined), the Potency was inconclusive: 251 nM [activator, partial curve]. In the case of `Cc1ccc(-c2c(C(=O)NCc3ccc(F)cc3)oc(=O)c3ccccc23)cc1`, the Potency is reported as inconclusive: 1120 nM [activator, partial curve]. With `NC(=O)COc1ccc(=O)n(-c2ccccc2)n1` the Potency was “inactive”. With `CC(C)c1ccc(C2C3CSCC=C3C(C#N)=C(N)C2(C#N)C#N)cc1` (centres undefined) the Potency was inconclusive: 3160 nM [activator, partial curve, poor fit]. For `CC1Cc2ccccc2N1C(=O)CCS(=O)(=O)c1cccc2nonc12` (centres undefined), the Potency was inconclusive: 2510 nM [activator, partial curve]. In the case of `CC(C)N(C(=O)C[n+]1ccc(/C=N/O)cc1)C(C)C`, the Potency is reported as inconclusive: 1260 nM [activator, single point]. For `CC(C)(ONC(=O)Nc1ccccc1Cl)C(=O)O`, the Potency was inconclusive: 1260 nM [activator, single point]. For `CC1=NN(c2ccccc2)C(=O)/C1=C\c1cc(C)n(C)c1C`, the cytoprotection (ATP increase) was inactive: -1.69% [at 10 µM]. In the case of `Cc1ccc(C)c(NC(=O)c2ccccc2Sc2ccc([N+](=O)[O-])cc2Cl)c1`, the Potency is reported as inconclusive: 3550 nM [activator, partial curve]. With `CCN1C(=O)c2ccccc2Sc2ccc(C(=O)NCCN3CCOCC3)cc21` the Potency was inconclusive: 7940 nM [activator, partial curve]. In the case of `CCCNC(=O)N1N=C(c2ccc(N)cc2)c2cc3c(cc2[C@H]1C)OCO3`, the Potency is reported as inconclusive: 39800 nM [activator, single point]. With `COc1ccccc1Nc1ncc(-c2cccs2)s1` the Potency was “inactive”. In the case of `O=c1c(Cl)c(N2CCN(c3ccc(F)cc3)CC2)cnn1C12CC3CC(CC(C3)C1)C2`, the cytoprotection (ATP increase) is reported as inactive: 24.5% [at 10 µM]. With `CC(=O)OC[C@@H]1O[C@@H](O/N=C2/C[C@@H](O)[C@@H](O)[C@@H]3[C@@H]4C(=O)N(c5cccc(Oc6ccccc6)c5)C(=O)[C@H]4CC[C@@H]23)[C@H](OC(C)=O)[C@H](OC(C)=O)[C@@H]1OC(C)=O` the Potency was inconclusive: 5620 nM [activator, single point]. With `CCn1cc(-c2csc(N)n2)c(C)n1` the Potency was “inactive”. In the case of `CN1C(=O)CC(Sc2ncccc2C(=O)O)C1=O` (centres undefined), the Potency is reported as inconclusive: 112 nM [activator, full curve, poor fit]. In the case of `NS(=O)(=O)c1cc2c(cc1C(F)(F)F)N[C@H](Cc1ccccc1)NS2(=O)=O`, the Potency is reported as inconclusive: 50.1 nM [activator, full curve, poor fit]. With `COc1ccccc1N1CCN(C(=O)C(=O)N/N=C/c2cccc(O)c2)CC1` the Potency was inconclusive: 282 nM [activator, full curve, poor fit]. In the case of `CCOc1ccccc1NC(=O)CSc1nnnn1-c1ccc(C(=O)OC)cc1`, the cytoprotection (ATP increase) is reported as inactive: -1.56% [at 10 µM]. For `CCCCn1c(SCC(=O)c2ccc3c(c2)NC(=O)CO3)nc2cc(S(N)(=O)=O)ccc21`, the Potency was “inactive”. In the case of `C=C[C@@]1(C)CC[C@H](O)[C@H]2C(=O)CCC[C@@H]21`, the Potency is reported as inconclusive: 35500 nM [activator, single point]. With `O=C(O)CSCc1c(F)cccc1Cl` the cytoprotection (ATP increase) was inactive: -5.14% [at 10 µM]. For `CC(C)Oc1cccc(C(=O)Nc2ccccc2N2CCOCC2)c1`, the cytoprotection (ATP increase) was inactive: -10.9% [at 10 µM]. For `CCN(CC)C(=S)Nc1ccc([N+](=O)[O-])cc1`, the Potency was inconclusive: 4470 nM [activator, single point]. In the case of `Cc1ncccc1C(=O)N1CCCC(CNC(=O)C2(c3ccc(Cl)cc3)CC2)C1` (centres undefined), the Potency is reported as inconclusive: 5620 nM [activator, single point]. In the case of `CNC(=S)N/N=C/c1c(C)nn(-c2cccc(Cl)c2)c1Cl`, the Potency is reported as inconclusive: 5620 nM [activator, single point]. For `Cc1cc(SCC(=O)OCC(=O)c2c(N)n(C)c(=O)n(C)c2=O)c(C)cc1Br`, the Potency was inconclusive: 1260 nM [activator, single point]. For `N#Cc1ccccc1OC[C@H](O)CNCCNC(=O)Nc1ccccc1`, the Potency was active: 31600 nM.
